The list shows only some results of the screen, not a fair sample: it gathers tests that were run many times, whatever their T/C, doses with no T/C, and many T/C values between a quarter and a half above the control. Further doses and runs are listed elsewhere. T/C: endpoint of the treated group in % of that of the vehicle group. Some doses have a count of surviving animals in place of a T/C: the source files T/C as zero there, which appears to mark a toxic dose or a test without result, not a measured value. Some survivor counts are full or nearly so, which does not show that the dose was tolerated: survival well below the control is almost never listed, so the zero probably covers shortened survival too. Survivors were counted at the toxicity check, usually on the fifth day, unless a day is given; later deaths do not show. Schedules are NCI's codes, read here as Q, the interval in days (D) or hours (H), X, the number of doses. Some doses were run more than once; their values stand side by side, smallest first. Signs of the kind (2×) give the number of equal values in this list. Where survival is the endpoint, this PubChem deposit counts one and a half times the control or more as active, and values a quarter to a half above the control carry no call in these data; other NCI protocols may use other cut-offs. Some T/C values are followed by the survivors on the day toxicity was checked, most often the fifth; where none is given, no animal had died by that day.

This assay concerns C57BL/6 mice, intracerebral ependymoblastoma, median survival T/C. Kind of assay: NCI In Vivo Anticancer Drug Screen. Data for tumor model Ependymoblastoma (intracerebral) in C57BL/6 mice. Particulars: T/C endpoint: median survival time, higher T/C = longer survival. As to the method: The antitumor activity of compounds was measured in mice bearing transplantable tumors. Survival or tumor size were measured and the results are expressed as the measurement made in the treated group (T) divided by the measurement made in the vehicle treated control group (C). The tumor model used in this assay is Ependymoblastoma (intracerebral) in C57BL/6 mice

Where [1] appears, read: dose: 0.8 mg/kg/injection, schedule: Q01DX005 (ip), vehicle: saline.
[2] abbreviates: dose: 1.6 mg/kg/injection, schedule: Q01DX005 (ip), vehicle: saline.
Where [3] appears, read: dose: 2.5 mg/kg/injection, schedule: Q01DX001 (ip), vehicle: Klucel (hydroxypropylcellulose) (HPC).
[4] abbreviates: dose: 40.0 mg/kg/injection, schedule: Q01DX001 (ip), vehicle: Klucel (hydroxypropylcellulose) (HPC).
Setting [5] is: dose: 80.0 mg/kg/injection, schedule: Q01DX001 (ip), vehicle: Klucel (hydroxypropylcellulose) (HPC).
Where [6] appears, read: dose: 50.0 mg/kg/injection, schedule: Q01DX005 (ip), vehicle: Klucel (hydroxypropylcellulose) (HPC).
Setting [7] is: dose: 100.0 mg/kg/injection, schedule: Q01DX005 (ip), vehicle: Klucel (hydroxypropylcellulose) (HPC).
The mark [8] stands for this setting: dose: 8.0 mg/kg/injection, schedule: Q01DX005 (ip), vehicle: saline.
Where [9] appears, read: dose: 16.0 mg/kg/injection, schedule: Q01DX005 (ip), vehicle: saline.

Consider `Cc1nc(N)nc(N)c1-c1ccc(Cl)c(Cl)c1`, for which the survivor count (dose: 2.0 mg/kg/injection, schedule: Q01DX005 (ip), vehicle: saline with Tween-80) is reported as 10 of 10; the survivor count (dose: 4.0 mg/kg/injection, schedule: Q01DX005 (ip), vehicle: saline with Tween-80) was 10 of 10; the survivor count (dose: 4.0 mg/kg/injection, schedule: Q04DX003 (ip), vehicle: saline) is 8 of 8; the survivor count (dose: 8.0 mg/kg/injection, schedule: Q01DX005 (ip), vehicle: saline with Tween-80) was 8 of 10 and 10 of 10; the survivor count (dose: 10.0 mg/kg/injection, schedule: Q04DX003 (ip), vehicle: saline) is 6 of 8; the survivor count (dose: 16.0 mg/kg/injection, schedule: Q01DX005 (ip), vehicle: saline with Tween-80) was 9 of 10 and 10 of 10.

As for `CC[C@]1(O)C[C@H]2CN(CCc3c([nH]c4ccccc34)[C@@](C(=O)OC)(c3cc4c(cc3OC)N(C=O)[C@H]3[C@@](O)(C(=O)OC)[C@H](OC(C)=O)[C@]5(CC)C=CCN6CC[C@]43[C@@H]65)C2)C1`, the survivor count reads like this: under setting [1], 3 of 6; under setting [2], 6 of 6; (dose: 3.2 mg/kg/injection, schedule: Q01DX005 (ip), vehicle: saline) 3 of 6; (dose: 6.4 mg/kg/injection, schedule: Q01DX005 (ip), vehicle: saline) 0 of 6; (dose: 12.8 mg/kg/injection, schedule: Q01DX005 (ip), vehicle: saline) 0 of 6.

Take `COc1cc2c(c(OC)c1OC)-c1ccc(OC)c(=O)cc1[C@@H](NC(C)=O)CC2`: the survivor count under setting [2] is 4 of 10.

In the case of `CCCCCCCCCCCCCC(=O)OC12CC(C)C3(O)C(C=C(CO)C(O)C4(O)C(=O)C(C)=CC43)C1C2(C)C` (stereo not drawn), under “dose: 1.0 mg/kg/injection, schedule: Q01DX005 (ip), vehicle: acetone”, the survivor count was 5 of 10.

On to `CN(C)C(=O)N(CCCl)N=O`, for which the T/C under setting [3] was 94 [4 of 10 alive], 105, 107 [8 of 10 alive], 112, 116, 118, 121, 128 % of control; the T/C (dose: 5.0 mg/kg/injection, schedule: Q01DX001 (ip), vehicle: Klucel (hydroxypropylcellulose) (HPC)) is 104 [7 of 10 alive], 107, 107 [6 of 10 alive], 116 [7 of 10 alive], 117, 121, 122, 125, 139 % of control; the T/C (dose: 10.0 mg/kg/injection, schedule: Q01DX001 (ip), vehicle: Klucel (hydroxypropylcellulose) (HPC)) is 100 [6 of 10 alive], 102 [5 of 10 alive], 113, 125 [6 of 10 alive], 126, 127, 128, 144, 161 % of control; the T/C (dose: 10.0 mg/kg/injection, schedule: Q01DX001 (ip), vehicle: other) was 127 % of control; the T/C (dose: 20.0 mg/kg/injection, schedule: Q01DX001 (ip), vehicle: Klucel (hydroxypropylcellulose) (HPC)) is 95 [4 of 10 alive], 97 [3 of 10 alive], 103 [6 of 10 alive], 148, 159, 184 [9 of 10 alive], 197, 201, 204 % of control; the T/C under setting [4] is 91, 99 [4 of 10 alive], 99 [8 of 10 alive], 114 [7 of 10 alive], 123, 196, 250 % of control. Further, the T/C under setting [5] was 97 [4 of 10 alive], 99 [3 of 10 alive], 100 % of control [6 of 10 alive]. The survivor count under setting [3] was 4 of 10; the survivor count (dose: 32.0 mg/kg/injection, schedule: Q01DX001 (ip), vehicle: other) is 7 of 10; the survivor count under setting [4] was 4 of 10 and 8 of 10; the survivor count (dose: 40.0 mg/kg/injection, schedule: Q01DX001 (ip), vehicle: other) is reported as 9 of 10; the survivor count (dose: 64.0 mg/kg/injection, schedule: Q01DX001 (ip), vehicle: other) is on record as 8 of 10; the survivor count under setting [5] was 1 of 10, 2 of 10, 4 of 10, 5 of 10.

Consider `[N-]=[N+]=CC(=O)CCC(N)C(=O)O` (stereo not drawn), for which the survivor count was 9 of 9 (dose: 0.05 mg/kg/injection, schedule: Q01DX005 (ip), vehicle: saline); 10 of 10 (dose: 0.1 mg/kg/injection, schedule: Q01DX005 (ip), vehicle: saline); 9 of 10 (dose: 0.2 mg/kg/injection, schedule: Q01DX005 (ip), vehicle: saline); 8 of 10 and 10 of 10 (dose: 0.4 mg/kg/injection, schedule: Q01DX005 (ip), vehicle: saline); 8 of 10 under setting [1].

With `O=C1NC(=O)C2(CCc3ccc(N(CCCl)CCCl)cc32)N1` (stereo not drawn), the survivor count is listed as 8 of 10 under setting [6] and 10 of 10 under setting [7].

For `COc1ccc(C[C@H](N)C(=O)NC2C(CO)OC(n3cnc4c(N(C)C)ncnc43)C2O)cc1` (stereo partly drawn), the survivor count reads like this: (dose: 80.0 mg/kg/injection, schedule: Q01DX005 (ip), vehicle: saline) 10 of 10; (dose: 160.0 mg/kg/injection, schedule: Q01DX005 (ip), vehicle: saline) 4 of 10; (dose: 320.0 mg/kg/injection, schedule: Q01DX005 (ip), vehicle: saline) 0 of 10; (dose: 640.0 mg/kg/injection, schedule: Q01DX005 (ip), vehicle: saline) 0 of 10.

In the case of `O=NN(CCF)C(=O)NC1CCCCC1`, the survivor count runs as follows: (dose: 40.0 mg/kg/injection, schedule: Q01DX005 (ip), vehicle: suspension in saline) 1 of 10; (dose: 80.0 mg/kg/injection, schedule: Q01DX005 (ip), vehicle: suspension in saline) 0 of 10; (dose: 160.0 mg/kg/injection, schedule: Q01DX005 (ip), vehicle: suspension in saline) 0 of 10.

For `O=C1NC2(CCCCC2)C(=O)N1CCN(CCCl)CCCl`, the T/C (dose: 4.0 mg/kg/injection, schedule: Q01DX005 (ip), vehicle: saline, evaluated on day 45) is 99 % of control; the T/C (dose: 4.0 mg/kg/injection, schedule: Q01DX005 (ip), vehicle: saline, evaluated on day 60) was 93, 100, 105 % of control; the T/C under setting [8] was 94 [9 of 10 alive], 101 [9 of 10 alive], 102 % of control; the T/C under setting [9] is 86 [9 of 10 alive], 98, 115 % of control. Also, the survivor count is 6 of 6 (dose: 6.0 mg/kg/injection, schedule: Q01DX009 (ip), vehicle: Klucel (hydroxypropylcellulose) (HPC)); 10 of 10 (dose: 8.0 mg/kg/injection, schedule: Q01DX005 (ip), vehicle: Klucel (hydroxypropylcellulose) (HPC)); 10 of 10 under setting [8]; 6 of 6 (dose: 12.0 mg/kg/injection, schedule: Q01DX009 (ip), vehicle: Klucel (hydroxypropylcellulose) (HPC)); 8 of 10 (dose: 16.0 mg/kg/injection, schedule: Q01DX005 (ip), vehicle: Klucel (hydroxypropylcellulose) (HPC)); 8 of 10 under setting [9]. In addition, the survivor count (dose: 25.0 mg/kg/injection, schedule: Q01DX005 (ip), vehicle: Klucel (hydroxypropylcellulose) (HPC)) is recorded as 8 of 10; the survivor count (dose: 32.0 mg/kg/injection, schedule: Q01DX005 (ip), vehicle: Klucel (hydroxypropylcellulose) (HPC)) is recorded as 0 of 10, 2 of 10, 10 of 10; the survivor count (dose: 32.0 mg/kg/injection, schedule: Q01DX005 (ip), vehicle: saline) is 5 of 10 and 8 of 10; the survivor count under setting [6] is 1 of 10; the survivor count (dose: 64.0 mg/kg/injection, schedule: Q01DX005 (ip), vehicle: Klucel (hydroxypropylcellulose) (HPC)) was 0 of 10; the survivor count (dose: 64.0 mg/kg/injection, schedule: Q01DX005 (ip), vehicle: saline) is 0 of 10 and 6 of 10. The survivor count under setting [7] is on record as 0 of 10 and the survivor count (dose: 128.0 mg/kg/injection, schedule: Q01DX005 (ip), vehicle: saline) is 0 of 10 (2×).
